The values that follow come from patent US9963474B2, “Mitochondria-targeted dicarbonyl sequestering compounds” (MEDICAL RESEARCH COUNCIL, priority 2013, dated 2018).

This data set relates to isolated mitochondria (RLM). As to the kind of experiment: Uptake by isolated mitochondria measured with TPP-selective electrode. Further details: species or system rat.

Each structure is given as a SMILES string.

For the compound `Nc1ccc(OCCCCCC[P+](c2ccccc2)(c2ccccc2)c2ccccc2)cc1N` [MitoG, (6-(3,4-Diaminophenoxy)hexyl)triphenylphosphonium chloride], where the note is “RLM 1 mg protein/ml, succinate, 37° C.”, the “membrane potential-dependent uptake into mitochondria” value is around 2 nmol/mg protein. Under “assuming matrix volume 0.5 μl/mg protein, external concentration ~2 μM”, this compound yielded a concentration within mitochondria of around 4 mM. Also, the accumulation within mitochondria (matrix versus external concentration) is around 2000 fold.
